According to paper PMC10163288:
This is one part of the list.

B1: il10ra_site1_normal_mot_HHH_b1_01821_000000158_0001_23_39_H_._HHH_b1_04578_0001_0000100005_0000001_1 (protein)
chain: SSSSDEFQRLAQEAVRLAIRLSDQETLQRIWELFKRYIEEGDPRLEEELEELLEELEERGSSSSS
B2: il10ra_site1_sap_18_mot_HHH_b2_03328_af2_000000127_0001_1_19_H_._HHH_b1_07680_0001_0000100001_0000001_0_0001 (protein)
chain: SSSSSEEEEEKVEELLERAKRIPDEHEAAQVLFEAMRLAWELNNPELAILVMRVAAEWMQSSSSS
B3: il10ra_site1_normal_mot_HHH_b1_00566_000000151_0001_22_39_H_._ems_3hM_1199_af2_0001_0000200004_0000001_0_1_af2pred_0001 (protein)
chain: SDEETEKIKEEAERRIEEALENNDEETALRVVIEVLRIAYRQNNPDVRRVAEELSRLVAEASLSS
B4: il10ra_site1_normal_mot_HHH_b1_05021_af2_000000076_0001_42_56_H_._HHH_b2_07762_0001_0000100004_0000001_0_af2pred_0001 (protein)
chain: SSSSSSRQELIKRALELLREAVQISDEEEVRELLEEAKELAEEANDVLLRVQIRYLAELNSSSSS
B5: il10ra_site1_normal_mot_0750aae41c39e4229e2ea8fa354cc919_0001_1_000000144_0001_37_51_H_._HHH_b1_03276_0001_0000500031_0000001_0_af2pred_dldesign_0_af2pred (protein)
chain: SSSDPERLFECAKTAIKYLLEAGEPEKAEKTLEYYAKLFEELGYPEYAEELKKYYEELKKELSSS
B6: il10ra_site1_sap_35_mot_HHH_b1_01779_000000096_0001_43_57_H_._ems_3hM_3465_0001_0000100005_0000001_0_0001 (protein)
chain: SSSSDEEEEEELKRVEEELEKLLKEGNPQEAFRLVEEAAELLLEGGDHELMERLLETFIRLSSSS
B7: il10ra_site1_sap_31_mot_HHH_b1_05937_af2_000000262_0001_20_37_H_._HHH_b2_05910_0001_0000300018_0000002_0_0001_af2pred_dldesign_0_af2pred (protein)
chain: SSSSNKEEIEKLIEEIEKLLEAGKPEEALELLRELTRKAIEGKDPEVIAKAVELGKKIEEESSSS
B8: il10ra_site1_normal_mot_8756ee2cf497b5429c717dfc0c0bcfd6_0001_000000186_0001_1_13_H_._HHH_b1_03711_0001_0000100007_0000001_0_af2pred_0001 (protein)
chain: SSSSSDRRELVELVRRVIKLIADGDPEEAEELIKEARELAEELGNEVARVILEFLLEQIRSSSSS
B9: il10ra_site1_normal_mot_HHH_b1_05937_af2_000000262_0001_20_37_H_._HHH_b1_01151_0001_0000100001_0000001_0 (protein)
chain: SSSSSDEVEELLEQAEELAERGNPEEALRVLQEAIRLAFERNDAELVQLIWEVAKEVAELSSSSS
B10: il10ra_site1_sap_21_mot_HHH_b1_03900_000000129_0001_1_16_H_._HHH_b2_02199_af2_0001_0000400039_0000002_0_0001 (protein)
chain: SSSSSSVVEEVAHLSLEAFRLALRGNPEEAREVLEEAEELAREGNDDRILRILEDLLRAQSSSSS
B11: il10ra_site1_normal_mot_HHH_b2_02386_000000054_0001_1_20_H_._HHH_b2_05043_0001_0000100013_0000001_0 (protein)
chain: SSSSSDESYELLRRAIEEVIRLYKEGNPEEAEKVVREVARELEELGNPLAARQLENLLRLLSSSS
B12: il10ra_site1_normal_mot_HHH_b2_01447_af2_000000258_0001_1_20_H_._HHH_b1_07178_af2_0001_0000300016_0000002_0 (protein)
chain: SSSSSTEEVMELIRRASELDQQGNEEEAREVLEEAQKLAEELNNFALRWAIEHLERVLNSSSSSS
B13: il10ra_site1_sap_25_mot_HHH_b2_02053_af2_000000006_0001_3_19_H_._d0e5aa17b8994cf95a3b92f728436530_0001_0001_0000100002_0000001_0_0001 (protein)
chain: SSSSDEDEEEVKELLEEAKELREEGNPEEASKVLQEAVRFAIQSQNPELLHLVWRVVHELGSSSS
B14: il10ra_site1_normal_mot_HHH_b1_01879_000000050_0001_1_18_H_._HHH_b1_04021_0001_0000300018_0000001_0 (protein)
chain: SSSSDELEELLEQLEKAVEEGDEELVIELYVQVARLAQRLNDKEVAEKVFQLLIEFWRRKSSSSS
B15: il10ra_site1_normal_mot_HHH_b1_01087_000000186_0001_1_17_H_._HHH_b1_05594_af2_0001_0000100001_0000001_0 (protein)
chain: SSSSDFERVKELIEEALKLLRNGDPEEAEKVLEEIRELAEKLNNPALRFVLRLLEELLEKLSSSS
B16: il10ra_site1_normal_mot_2c1a291787c6f40772924d4e9068d803_0001_af2_000000187_0001_34_48_H_._HHH_b2_04100_0001_0000200009_0000001_0 (protein)
chain: SSSSNEEERLVFEVAAKAYLLFDKGNEEEAKKVLKELEELAEELNDPAARAYVRALERLLSSSSS
B17: il10ra_site1_normal_mot_8756ee2cf497b5429c717dfc0c0bcfd6_0001_000000186_0001_1_13_H_._HHH_b1_05781_0001_0000300026_0000001_0 (protein)
chain: SSSSDEDAQEVAELLREIVELYNNGNPEEARRLLEEAEEIAEENNNDVLRAQLEYLRRLIDSSSS
B18: il10ra_site1_sap_17_mot_HHH_b2_00479_000000091_0001_1_12_H_._HHH_b2_01810_0001_0000100002_0000001_0_0001_af2pred_dldesign_0_af2pred (protein)
chain: SSSSSAKELVDQAIRAAKLLWEAGEPEEAQKALDTAKAIAENAKDPELLKKVEEVKEELLKSSSS

biological target: il10ra, Q13651; experiment: yeast display titration

Row | Binder | apparent Kd
1 | B1 | inactive: no binding seen
2 | B2 | inactive: no binding seen
3 | B3 | inactive: no binding seen
4 | B4 | inactive: no binding seen
5 | B5 | inactive: no binding seen
6 | B6 | inactive: no binding seen
7 | B7 | inactive: no binding seen
8 | B8 | inactive: no binding seen
9 | B9 | inactive: no binding seen
10 | B10 | inactive: no binding seen
11 | B11 | inactive: no binding seen
12 | B12 | inactive: no binding seen
13 | B13 | inactive: no binding seen
14 | B14 | inactive: no binding seen
15 | B15 | inactive: no binding seen
16 | B16 | inactive: no binding seen
17 | B17 | inactive: no binding seen
18 | B18 | inactive: no binding seen

Taken from above:
In apparent Kd, B6 has inactive: no binding seen
In apparent Kd, B15 has inactive: no binding seen
